The other results are listed elsewhere or left out.
Experiments:
Assay in all cases: log2 fold change, soluble protein after heating vs DMSO (PISA); higher = thermal stabilisation; K562 lysate, 10 uM; active = over 0.2 and 3.5 SD of the protein, either way, in both replicates (recomputed)
[1] = compound: C1=CC=C(C=C1)[C@H](COC2=CC3=C(C=C2)NC(=O)N3)NC(=O)C4=CC=CN(C4=O)CC5=CC(=C(C=C5)F)F
Method in brief: (§1)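 K562 pellets were dounce-homogenised in PBS pH 7.4 with 1 mM MgCl2, and the crude extract at 1 mg/mL protein was treated with 10 μM compound for 30 min. Aliquots were heated for 3 min across 48°C-58°C, pooled, and brought to 0.5% NP-40 at 4°C; soluble protein was the supernatant after 21,000xg for 90 min. Soluble protein was quantified by TMTpro 16plex LC-MS/MS with channel sums equalised, and reported as log2 fold change in thermal stability against DMSO controls, with values from duplicates.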

Chains of the proteins cited; added tags and fusions are not shown. Lines headed by an entry give the natural chain unless they say otherwise; changes in a name come on top.
UniProt P57076: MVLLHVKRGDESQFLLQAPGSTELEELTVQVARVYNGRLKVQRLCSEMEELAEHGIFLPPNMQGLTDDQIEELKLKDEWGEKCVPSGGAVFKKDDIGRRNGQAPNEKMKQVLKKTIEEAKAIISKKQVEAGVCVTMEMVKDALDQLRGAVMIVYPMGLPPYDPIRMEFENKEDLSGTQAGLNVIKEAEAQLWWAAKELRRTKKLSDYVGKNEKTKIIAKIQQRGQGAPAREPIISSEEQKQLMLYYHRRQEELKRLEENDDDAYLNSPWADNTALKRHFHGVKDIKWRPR
UniProt P11802: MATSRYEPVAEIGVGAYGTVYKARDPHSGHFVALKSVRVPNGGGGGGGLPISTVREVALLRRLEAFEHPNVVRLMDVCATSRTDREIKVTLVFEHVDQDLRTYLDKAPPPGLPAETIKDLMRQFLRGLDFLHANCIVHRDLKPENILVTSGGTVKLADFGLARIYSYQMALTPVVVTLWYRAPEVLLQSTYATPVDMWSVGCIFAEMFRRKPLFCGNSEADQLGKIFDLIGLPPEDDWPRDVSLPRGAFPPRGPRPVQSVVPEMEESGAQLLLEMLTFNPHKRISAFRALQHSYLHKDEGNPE
UniProt P23528, whole entry, looked up: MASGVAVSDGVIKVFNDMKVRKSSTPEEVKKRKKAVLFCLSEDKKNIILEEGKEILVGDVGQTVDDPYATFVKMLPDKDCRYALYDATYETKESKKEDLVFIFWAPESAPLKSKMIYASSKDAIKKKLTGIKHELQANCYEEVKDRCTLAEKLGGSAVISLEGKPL
UniProt Q15517: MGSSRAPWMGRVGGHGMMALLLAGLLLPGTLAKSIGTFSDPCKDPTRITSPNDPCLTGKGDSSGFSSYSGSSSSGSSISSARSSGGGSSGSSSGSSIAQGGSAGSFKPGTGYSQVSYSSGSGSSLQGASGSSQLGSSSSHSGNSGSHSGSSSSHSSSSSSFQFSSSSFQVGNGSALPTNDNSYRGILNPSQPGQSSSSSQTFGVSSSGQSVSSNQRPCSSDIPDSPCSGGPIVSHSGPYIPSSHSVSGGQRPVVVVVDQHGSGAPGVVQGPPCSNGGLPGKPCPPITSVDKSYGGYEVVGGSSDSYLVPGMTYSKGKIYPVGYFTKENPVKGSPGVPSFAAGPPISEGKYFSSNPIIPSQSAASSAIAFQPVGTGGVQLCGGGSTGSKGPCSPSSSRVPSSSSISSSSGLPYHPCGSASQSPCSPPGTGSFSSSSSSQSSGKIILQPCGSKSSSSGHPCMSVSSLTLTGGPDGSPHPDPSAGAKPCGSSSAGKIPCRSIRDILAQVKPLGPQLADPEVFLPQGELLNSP
UniProt Q71F23: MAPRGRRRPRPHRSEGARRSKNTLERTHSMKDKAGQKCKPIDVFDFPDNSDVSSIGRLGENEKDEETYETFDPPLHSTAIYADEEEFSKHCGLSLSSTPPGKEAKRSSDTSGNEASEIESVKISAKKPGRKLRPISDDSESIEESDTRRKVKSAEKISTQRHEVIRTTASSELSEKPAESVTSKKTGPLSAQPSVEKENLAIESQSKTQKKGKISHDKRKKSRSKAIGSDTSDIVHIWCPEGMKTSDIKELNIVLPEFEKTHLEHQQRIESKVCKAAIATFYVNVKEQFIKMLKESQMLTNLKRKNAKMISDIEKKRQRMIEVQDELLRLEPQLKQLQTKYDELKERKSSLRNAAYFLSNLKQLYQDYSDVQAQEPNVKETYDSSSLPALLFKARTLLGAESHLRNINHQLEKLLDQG
UniProt Q6ZMG9: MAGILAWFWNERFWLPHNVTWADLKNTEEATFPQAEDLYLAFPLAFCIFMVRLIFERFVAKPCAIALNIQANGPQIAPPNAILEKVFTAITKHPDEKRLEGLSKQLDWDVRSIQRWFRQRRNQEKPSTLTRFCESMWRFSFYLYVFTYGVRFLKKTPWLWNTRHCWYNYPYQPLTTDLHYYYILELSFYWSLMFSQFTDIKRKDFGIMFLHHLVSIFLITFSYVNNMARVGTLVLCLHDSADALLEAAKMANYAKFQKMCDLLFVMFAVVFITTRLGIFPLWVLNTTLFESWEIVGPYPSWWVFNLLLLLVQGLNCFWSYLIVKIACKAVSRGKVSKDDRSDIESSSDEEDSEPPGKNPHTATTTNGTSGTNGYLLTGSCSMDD
UniProt Q9Y281, whole entry, looked up: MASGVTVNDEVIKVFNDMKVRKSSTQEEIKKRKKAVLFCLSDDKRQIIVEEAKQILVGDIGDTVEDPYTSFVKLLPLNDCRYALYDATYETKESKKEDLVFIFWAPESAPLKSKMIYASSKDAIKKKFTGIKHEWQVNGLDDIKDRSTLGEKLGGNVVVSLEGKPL
UniProt Q12834, whole entry, looked up: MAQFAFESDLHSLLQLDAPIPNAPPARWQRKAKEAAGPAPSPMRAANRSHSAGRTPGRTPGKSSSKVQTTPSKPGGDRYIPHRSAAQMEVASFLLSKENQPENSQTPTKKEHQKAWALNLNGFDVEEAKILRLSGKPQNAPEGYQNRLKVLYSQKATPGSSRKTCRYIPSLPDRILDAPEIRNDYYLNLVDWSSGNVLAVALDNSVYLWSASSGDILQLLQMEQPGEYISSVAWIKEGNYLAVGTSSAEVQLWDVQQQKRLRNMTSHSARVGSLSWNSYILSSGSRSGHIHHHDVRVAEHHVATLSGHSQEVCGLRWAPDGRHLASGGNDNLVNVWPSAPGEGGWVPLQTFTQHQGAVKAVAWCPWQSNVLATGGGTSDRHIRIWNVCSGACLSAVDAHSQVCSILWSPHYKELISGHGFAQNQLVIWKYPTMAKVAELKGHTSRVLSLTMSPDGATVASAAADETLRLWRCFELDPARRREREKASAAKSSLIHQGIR
UniProt Q53HL2: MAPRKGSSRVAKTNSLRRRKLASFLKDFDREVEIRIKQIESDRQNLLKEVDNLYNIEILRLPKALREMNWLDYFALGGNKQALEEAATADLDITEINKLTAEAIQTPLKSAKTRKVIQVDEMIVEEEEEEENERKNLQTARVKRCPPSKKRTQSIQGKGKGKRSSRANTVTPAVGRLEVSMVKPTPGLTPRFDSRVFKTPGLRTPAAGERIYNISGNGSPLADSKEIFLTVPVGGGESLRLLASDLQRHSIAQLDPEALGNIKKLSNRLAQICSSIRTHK
UniProt Q7Z7K6: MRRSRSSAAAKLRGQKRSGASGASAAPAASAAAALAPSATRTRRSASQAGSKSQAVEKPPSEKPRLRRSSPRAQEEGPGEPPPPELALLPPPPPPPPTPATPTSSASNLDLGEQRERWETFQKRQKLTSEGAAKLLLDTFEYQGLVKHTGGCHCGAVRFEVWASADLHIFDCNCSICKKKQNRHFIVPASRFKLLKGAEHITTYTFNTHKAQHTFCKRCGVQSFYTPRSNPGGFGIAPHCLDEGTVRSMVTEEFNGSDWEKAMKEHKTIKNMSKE
UniProt O60508: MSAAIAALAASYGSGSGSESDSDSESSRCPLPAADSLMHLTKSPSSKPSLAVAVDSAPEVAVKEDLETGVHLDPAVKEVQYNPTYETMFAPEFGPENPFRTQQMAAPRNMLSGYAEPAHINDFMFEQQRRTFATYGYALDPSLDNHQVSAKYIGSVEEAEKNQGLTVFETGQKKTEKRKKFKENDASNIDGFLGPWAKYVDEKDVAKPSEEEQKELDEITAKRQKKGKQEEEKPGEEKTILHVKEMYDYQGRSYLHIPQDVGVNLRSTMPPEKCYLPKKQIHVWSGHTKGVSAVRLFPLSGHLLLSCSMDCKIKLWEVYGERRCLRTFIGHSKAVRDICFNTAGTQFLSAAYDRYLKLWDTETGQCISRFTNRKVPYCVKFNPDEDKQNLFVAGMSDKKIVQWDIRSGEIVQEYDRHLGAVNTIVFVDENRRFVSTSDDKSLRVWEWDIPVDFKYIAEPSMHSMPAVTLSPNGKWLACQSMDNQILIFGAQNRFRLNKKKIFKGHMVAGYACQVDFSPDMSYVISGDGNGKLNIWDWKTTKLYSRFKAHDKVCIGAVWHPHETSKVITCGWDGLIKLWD
UniProt P49336: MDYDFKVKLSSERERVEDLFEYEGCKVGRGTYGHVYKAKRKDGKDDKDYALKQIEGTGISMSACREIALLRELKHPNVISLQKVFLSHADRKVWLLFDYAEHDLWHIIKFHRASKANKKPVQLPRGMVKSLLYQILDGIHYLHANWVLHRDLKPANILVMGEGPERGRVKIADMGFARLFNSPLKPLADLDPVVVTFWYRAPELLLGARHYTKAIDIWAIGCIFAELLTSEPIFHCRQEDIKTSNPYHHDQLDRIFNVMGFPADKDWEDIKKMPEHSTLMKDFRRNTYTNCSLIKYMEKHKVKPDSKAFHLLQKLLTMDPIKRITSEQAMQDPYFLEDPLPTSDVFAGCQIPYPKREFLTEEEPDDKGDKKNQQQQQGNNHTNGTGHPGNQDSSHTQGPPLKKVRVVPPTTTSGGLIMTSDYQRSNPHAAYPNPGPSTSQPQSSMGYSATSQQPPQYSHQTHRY
UniProt P30305: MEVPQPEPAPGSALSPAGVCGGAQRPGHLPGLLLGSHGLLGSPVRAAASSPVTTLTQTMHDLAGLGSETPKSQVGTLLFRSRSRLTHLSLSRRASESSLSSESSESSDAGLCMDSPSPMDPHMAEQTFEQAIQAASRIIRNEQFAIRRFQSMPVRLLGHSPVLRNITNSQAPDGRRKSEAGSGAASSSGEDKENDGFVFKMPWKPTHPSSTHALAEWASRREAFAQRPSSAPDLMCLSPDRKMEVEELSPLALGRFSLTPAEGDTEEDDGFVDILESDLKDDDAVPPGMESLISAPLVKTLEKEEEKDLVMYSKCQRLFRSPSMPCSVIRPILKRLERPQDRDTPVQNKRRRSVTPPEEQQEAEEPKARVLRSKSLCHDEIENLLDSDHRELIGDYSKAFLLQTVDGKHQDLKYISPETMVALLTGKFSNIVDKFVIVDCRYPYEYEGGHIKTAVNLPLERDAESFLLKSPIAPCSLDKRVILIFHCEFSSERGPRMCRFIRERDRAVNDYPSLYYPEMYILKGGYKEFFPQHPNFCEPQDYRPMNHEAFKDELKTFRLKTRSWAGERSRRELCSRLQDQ
UniProt P42773: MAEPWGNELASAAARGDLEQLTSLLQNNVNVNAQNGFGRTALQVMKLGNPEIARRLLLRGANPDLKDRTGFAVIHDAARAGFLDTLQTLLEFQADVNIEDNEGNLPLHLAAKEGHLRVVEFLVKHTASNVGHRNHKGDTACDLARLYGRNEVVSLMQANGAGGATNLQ
UniProt Q9BWU1: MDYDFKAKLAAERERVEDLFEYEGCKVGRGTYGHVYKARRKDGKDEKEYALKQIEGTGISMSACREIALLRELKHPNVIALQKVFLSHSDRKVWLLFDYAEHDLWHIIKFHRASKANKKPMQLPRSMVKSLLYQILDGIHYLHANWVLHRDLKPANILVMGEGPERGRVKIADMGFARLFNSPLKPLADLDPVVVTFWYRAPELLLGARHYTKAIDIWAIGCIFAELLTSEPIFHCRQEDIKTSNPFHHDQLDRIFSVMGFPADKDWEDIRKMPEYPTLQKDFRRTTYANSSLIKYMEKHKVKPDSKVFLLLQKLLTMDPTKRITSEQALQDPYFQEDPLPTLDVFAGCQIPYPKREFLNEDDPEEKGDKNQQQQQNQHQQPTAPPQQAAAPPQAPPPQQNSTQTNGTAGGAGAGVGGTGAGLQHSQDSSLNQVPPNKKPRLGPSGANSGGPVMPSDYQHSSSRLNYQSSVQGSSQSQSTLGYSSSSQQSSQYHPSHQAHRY
UniProt P50613: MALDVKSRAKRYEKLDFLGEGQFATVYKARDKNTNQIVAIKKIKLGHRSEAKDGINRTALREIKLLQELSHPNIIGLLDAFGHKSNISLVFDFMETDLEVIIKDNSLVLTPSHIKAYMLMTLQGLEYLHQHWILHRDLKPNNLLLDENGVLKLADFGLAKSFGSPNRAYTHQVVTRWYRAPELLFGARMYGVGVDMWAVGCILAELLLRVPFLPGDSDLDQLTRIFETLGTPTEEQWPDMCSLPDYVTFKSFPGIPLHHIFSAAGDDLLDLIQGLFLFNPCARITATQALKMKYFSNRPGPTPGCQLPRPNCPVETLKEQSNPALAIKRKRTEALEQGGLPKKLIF
UniProt Q5VV42: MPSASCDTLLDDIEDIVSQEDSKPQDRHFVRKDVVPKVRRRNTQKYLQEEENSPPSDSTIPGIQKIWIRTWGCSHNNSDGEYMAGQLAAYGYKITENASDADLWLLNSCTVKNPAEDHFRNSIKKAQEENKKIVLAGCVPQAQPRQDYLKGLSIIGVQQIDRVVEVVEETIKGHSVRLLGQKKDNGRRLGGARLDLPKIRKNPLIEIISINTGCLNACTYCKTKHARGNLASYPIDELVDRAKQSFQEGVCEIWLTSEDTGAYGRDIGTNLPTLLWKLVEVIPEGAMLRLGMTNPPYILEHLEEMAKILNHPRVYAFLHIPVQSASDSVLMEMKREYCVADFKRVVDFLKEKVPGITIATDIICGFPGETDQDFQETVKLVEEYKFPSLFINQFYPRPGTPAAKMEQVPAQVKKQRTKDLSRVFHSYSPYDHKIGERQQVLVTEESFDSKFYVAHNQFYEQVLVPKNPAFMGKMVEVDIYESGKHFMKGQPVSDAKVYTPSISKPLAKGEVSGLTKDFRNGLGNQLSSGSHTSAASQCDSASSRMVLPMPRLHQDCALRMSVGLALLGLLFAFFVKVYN

[2] = compound: CC1=C(SC2=C1C(=N[C@H](C3=NN=C(N32)C)CC(=O)N)C4=CC=C(C=C4)Cl)C
Method in brief: as §1

[3] = compound: CC1=C2C(=CC=C1)N=C(N(C2=O)C3=CC=CC=C3C)CN4C=NC5=C(N=CN=C54)N
Method in brief: as §1

[4] = compound: Cc1sc2c(c1C)C(c1ccc(Cl)cc1)=N[C@@H](CC(=O)OC(C)(C)C)c1nnc(C)n1-2
Method in brief: as §1

[5] = compound: c1ccc([C@@H]2C[C@H]2NC2CCNCC2)cc1
Method in brief: as §1

Measured: log2 fold change

CFAP298 (UniProt P57076)
inactive: [1] 0.036 | [2] 0.005 | [3] -0.011 | [4] 0.032 | [5] 0.026

CDK4 (UniProt P11802)
inactive: [1] 0.029 | [2] -0.006 | [3] -0.02 | [4] 0.045 | [5] -0.102

CFL1 (UniProt P23528)
inactive: [1] 0.021 | [2] -0.006 | [3] -0.007 | [4] 0.024 | [5] 0.001

CDSN (UniProt Q15517)
inactive: [1] -0.217 | [2] 0.11 | [3] -0.076 | [4] -0.094 | [5] 0.02

CENPU (UniProt Q71F23)
inactive: [1] 0.079 | [2] -0.053 | [3] 0.008 | [4] -0.025 | [5] 0.172

CERS6 isoform 2 (UniProt Q6ZMG9)
inactive: [1] 0.132 | [2] -0.044 | [3] 0.012 | [4] -0.049 | [5] 0.005

CELF1 isoform 4 (UniProt Q92879)
inactive: [1] 0.04 | [2] -0.005 | [3] 0.07 | [4] 0.044 | [5] 0.144

CDKN1C (UniProt P49918)
inactive: [1] 0.035 | [2] -0.012 | [3] 0.185 | [4] 0.094 | [5] 0.025

CFL2 (UniProt Q9Y281)
inactive: [1] 0.017 | [2] 0.017 | [3] -0.037 | [4] 0.003 | [5] -0.054

CDC20 (UniProt Q12834)
inactive: [1] 0.067 | [2] 0.023 | [3] -0.077 | [4] -0.117 | [5] 0.014

CDC42SE2 (UniProt Q9NRR3)
inactive: [1] 0.033 | [2] -0.02 | [3] 0.078 | [4] -0.077 | [5] -0.035

CDCA8 (UniProt Q53HL2)
inactive: [1] 0.038 | [2] 0.037 | [3] -0.213 | [4] -0.048 | [5] 0.104

CENPV (UniProt Q7Z7K6)
inactive: [1] 0.059 | [2] -0.217 | [3] -0.201 | [5] 0.166

CEFIP (UniProt Q711Q0)
inactive: [1] 0.033 | [2] 0.061 | [3] -0.007 | [5] -0.015

CDV3 (UniProt Q9UKY7)
inactive: [1] 0.031 | [2] -0.022 | [3] -0.022 | [4] -0.018 | [5] -0.014

CDK2 (UniProt P24941)
inactive: [1] 0.006 | [2] 0.004 | [3] -0.039 | [4] 0.076 | [5] -0.028

CDC40 (UniProt O60508)
inactive: [1] 0.036 | [2] 0.003 | [3] -0.099 | [4] 0.099 | [5] -0.03

CDC23 (UniProt Q9UJX2)
inactive: [1] 0.003 | [2] -0.034 | [3] 0.011 | [4] 0.019 | [5] 0.047

CDK8 (UniProt P49336)
inactive: [1] -0.05 | [2] -0.108 | [3] 0.202 | [4] 0.017 | [5] -0.045

CDC25B (UniProt P30305)
inactive: [1] 0.031 | [2] -0.022 | [3] 0.126 | [4] 0.024 | [5] 0.019

CEP290 (UniProt O15078)
inactive: [1] -0.056 | [2] 0.097 | [3] 0.055 | [4] -0.09 | [5] 0.024

CDKN2C (UniProt P42773)
inactive: [1] -0.023 | [2] -0.165 | [3] 0.001 | [4] -0.016 | [5] 0.009

CDK19 (UniProt Q9BWU1)
inactive: [1] 0.043 | [2] 0 | [3] -0.021 | [4] -0.178 | [5] -0.262

CDK7 (UniProt P50613)
inactive: [1] 0.016 | [2] 0.014 | [3] 0.012 | [4] -0.054 | [5] -0.013

2 successive records out of the list so far, for reference:
CDKN2C (UniProt P42773)
inactive: [1] -0.023 | [2] -0.165 | [3] 0.001 | [4] -0.016 | [5] 0.009

CDK19 (UniProt Q9BWU1)
inactive: [1] 0.043 | [2] 0 | [3] -0.021 | [4] -0.178 | [5] -0.262

Next entries.

CDKAL1 (UniProt Q5VV42)
inactive: [1] -0.049 | [2] 0.004 | [3] 0 | [4] 0.005 | [5] 0.044

— the supplement of paper PMC10849652
